This series relates to nuclear export of the XPO1 cargo protein Rev-GFP in stably transfected U2OS cells. In words: Rev-GFP assay (nuclear retention of Rev-GFP). Type of series: cell-based. The settings on record: ratio of Rev-GFP IC50 values. The source says: For this assay we utilized biotinylated LMB (b-LMB) as a tool compound to quantify the amount of XPO1 bound by SINE compounds (Figure 1). b-LMB was synthesized by coupling a biotin tag to LMB. We compared the inhibition of nuclear export and the cytotoxicity of b-LMB to that of the unmodified LMB. […] We then quantified the effects of these compounds on cell death in several cancer cell lines using an MTT cytotoxicity assay (Table 2).
For the typical Rev-GFP assay, U2OS cells stably expressing Rev-GFP [42] were cultured in 96 well plates at 7,500 - 15,000 cells/well. […] After fixation cells were stained with DAPI (Invitrogen) for 10 minutes at room temperature. Cells were imaged with a Nikon fluorescent microscope at 10X magnification and intensity of the GFP and nuclear area were measured and recorded. Cells were scored as either GFP nuclear positive or negative. Number of positive cells were divided by total number of cells in order to calculate percentage of cells with nuclear GFP per well.

Experimental findings from paper PMC4811503, “A method for quantification of exportin-1 (XPO1) occupancy by Selective Inhibitor of Nuclear Export (SINE) compounds” (Oncotarget, 2015) are described below.

SMILES strings stand for the structures.

`O=C1N[C@H]2[C@H](CS[C@H]2CCCCC(=O)Oc2cc(-c3ncn(/C=C\C(=O)N4CC(F)(F)C4)n3)cc(C(F)(F)F)c2)N1` [KPT-9058]: the “fold less potent in Rev-GFP compared to unmodified counterpart” value is recorded as about 18 fold.

For `NC(=O)/C(=C/n1cnc(-c2cc(OC(=O)CCCC[C@@H]3SC[C@@H]4NC(=O)N[C@@H]43)cc(C(F)(F)F)c2)n1)c1cncnc1` [KPT-9511], the “fold less potent in Rev-GFP compared to unmodified counterpart” value is on record as about 5 fold.
